Experimental data published in patent US20110086886A2, “INSECTICIDAL ISOXAZOLINES” (Bayer CropScience AG, priority 2006, published 2011).
Some of these results come from one statement about several compounds together.

Columns and labels:
Assay type in all cases: in vivo
[1] = tested on: Tetranychus urticae; assay: Test for Tetranychus urticae (spray test); conditions: effective component concentration of 100 ppm, adults on bean leaves, after 7 days
[2] = tested on: Musca domestica; assay: Test for Musca domestica; conditions: 100 ppm after 2 days
[3] = tested on: Ctenocephalides felis, strain "Georgi"; assay: Test for cat fleas / oral uptake; conditions: 100 ppm in cattle blood, after 2 days
Method: 20 mg of the active compound are dissolved in 1 ml dimethylsulphoxide To prepare a suitable formulation (e.g. 100 ppm), the active compound solution is diluted to the respective desired concentration with cattle blood (e.g. 1 part by weight active compound solution with 199 parts by weight cattle blood).
20 unfed adult fleas (Ctenocephalides felis, strain “Georgi”) are placed into a chamber (Ø 5 cm) whose top and bottom are closed with gauze. A metal cylinder whose underside is covered with parafilm is placed onto the chamber. The cylinder contains the blood/active compound formulation which can be taken up by the fleas through the parafilm membrane. Whereas the blood is warmed to 37° C., the temperature in the area of the flea chambers is adjusted to room temperature.
After the desired time the mortality in % is determined. Here 100% means that all fleas were killed; 0% means that no fleas were killed.

[4] = tested on: Lucilia cuprina larvae; assay: Test for Lucilia cuprina larvae; conditions: 100 ppm after 2 days
Method: 20 mg of active compound are dissolved in 1 ml of dimethyl sulphoxide. To prepare a suitable formulation (e.g. 100 ppm), the active compound solution is diluted to the respective desired concentration with water (e.g. 1 part by weight active compound solution with 199 parts by weight water).
Approximately 20 Lucilia cuprina larvae are introduced into a test tube which contains approx. 1 cm^3 horse meat and 0.5 ml of the active compound preparation to be tested. After 48 hours, the efficacy of the active compound preparation is determined as % larval mortality. 0%: no larvae were killed, 100%: all larvae were killed.

[5] = tested on: Rhipicephalus (Boophilus) microplus; assay: Rhipicephalus (Boophilus) microplus; injection; conditions: 20 μg/tick, after 7 days

Structure (SMILES)	acaricidal ratio [1] [%]	larval mortality [2] [%]	kill (mortality) [3] [%]	larval mortality [4] [%]	activity (no deposit of fertile eggs) [5] [%]
O=[N+]([O-])c1cc(C2=NOC(c3cccc(Cl)c3)(C(F)(F)F)C2)ccc1-n1cncn1 (racemic) [Compound 90]	≥ 98				
FC(F)(F)C1(c2cc(Cl)cc(Cl)c2)CC(c2ccc(-n3cncn3)c(Cl)c2)=NO1 (racemic) [Compound 94]	≥ 98	> 95	> 80	> 95	> 90
FC(F)(F)C1(c2cc(Cl)cc(Cl)c2)CC(c2ccc(-n3cncn3)c(Br)c2)=NO1 (racemic) [Compound 97]	≥ 98				
FC(F)(F)C1(c2cc(Cl)cc(Cl)c2)CC(c2ccc(-n3cncn3)c(I)c2)=NO1 (racemic) [Compound 98]	≥ 98				
COc1cc(C2=NOC(c3cc(Cl)cc(Cl)c3)(C(F)(F)F)C2)ccc1-n1cncn1 (racemic) [Compound 103]	≥ 98				
COC(=O)Nc1cc(C2=NOC(c3cc(Cl)cc(Cl)c3)(C(F)(F)F)C2)ccc1-n1cncn1 (racemic) [Compound 109]	≥ 98				
FC(F)(F)C1(c2cc(Cl)cc(Cl)c2)CC(c2ccc(-n3cncn3)nc2)=NO1 (racemic) [Compound 114]	≥ 98				
FC(F)(F)c1ccc(C2(C(F)(F)F)CC(c3ccc(-n4cncn4)cc3)=NO2)cc1 (racemic) [Compound 123]	≥ 98				
FC(F)(F)c1cccc(C2(C(F)(F)F)CC(c3ccc(-n4cncn4)c(Br)c3)=NO2)c1 (racemic) [Compound 125]	≥ 98				
N#Cc1cc(C2=NOC(c3cccc(C(F)(F)F)c3)(C(F)(F)F)C2)ccc1-n1cncn1 (racemic) [Compound 126]	≥ 98				
O=[N+]([O-])c1cc(C2=NOC(c3cccc(C(F)(F)F)c3)(C(F)(F)F)C2)ccc1-n1cncn1 (racemic) [Compound 127]	≥ 98				
FC(F)(F)c1cc(C(F)(F)F)cc(C2(C(F)(F)F)CC(c3ccc(-n4cncn4)cc3)=NO2)c1 (racemic) [Compound 132]	≥ 98				
FC(F)(F)c1cc(C(F)(F)F)cc(C2(C(F)(F)F)CC(c3ccc(-n4cncn4)c(Br)c3)=NO2)c1 (racemic) [Compound 134]	≥ 98				
N#Cc1cc(C2=NOC(c3cc(C(F)(F)F)cc(C(F)(F)F)c3)(C(F)(F)F)C2)ccc1-n1cncn1 (racemic) [Compound 135]	≥ 98				
O=[N+]([O-])c1cc(C2=NOC(c3cc(C(F)(F)F)cc(C(F)(F)F)c3)(C(F)(F)F)C2)ccc1-n1cncn1 (racemic) [Compound 136]	≥ 98				
FC(F)(F)C1(c2cc(Cl)cc(Cl)c2)CC(c2ccc(-n3cnnn3)c(Cl)c2)=NO1 (racemic) [Compound 150]	≥ 98				

Structure (SMILES)	acaricidal ratio [1] [%]	larval mortality [2] [%]	kill (mortality) [3] [%]	larval mortality [4] [%]	activity (no deposit of fertile eggs) [5] [%]
N#Cc1cc(C2=NOC(c3cc(Cl)cc(Cl)c3)(C(F)(F)F)C2)ccc1-n1cc(F)cn1 (centres unmarked) [Compound 16]	≥ 98	> 95	> 80	> 95	> 90
N#Cc1cc(C2=NOC(c3cc(Cl)cc(Cl)c3)(C(F)(F)F)C2)ccc1-n1cc([N+](=O)[O-])cn1 (centres unmarked) [Compound 21]	≥ 98				
N#Cc1cc(C2=NOC(c3cccc(C(F)(F)F)c3)(C(F)(F)F)C2)ccc1-n1cc([N+](=O)[O-])cn1 (centres unmarked) [Compound 38]	≥ 98		> 80	> 95	> 90
N#Cc1cc(C2=NOC(c3ccccc3)(C(F)(F)F)C2)ccc1-n1cncn1 (centres unmarked) [Compound 80]	≥ 98	> 95	> 80	> 95	> 90
N#Cc1cc(C2=NOC(c3cc(F)cc(F)c3)(C(F)(F)F)C2)ccc1-n1cncn1 (centres unmarked) [Compound 84]		> 95	> 80	> 95	> 90
O=[N+]([O-])c1cc(C2=NOC(c3cc(F)cc(F)c3)(C(F)(F)F)C2)ccc1-n1cncn1 (centres unmarked) [Compound 85]	≥ 98				
FC(F)(F)C1(c2cccc(Cl)c2)CC(c2ccc(-n3cncn3)c(Br)c2)=NO1 (centres unmarked) [Compound 88]		> 95	> 80	> 95	> 90
N#Cc1cc(C2=NOC(c3cccc(Cl)c3)(C(F)(F)F)C2)ccc1-n1cncn1 (centres unmarked) [Compound 89]	≥ 98	> 95	> 80	> 95	> 90
FC(F)(F)C1(c2cc(Cl)cc(Cl)c2)CC(c2ccc(-n3cnnn3)c(Br)c2)=NO1 (centres unmarked) [Compound 151]	≥ 98				
N#Cc1cc(C2=NOC(c3cc(Cl)cc(Cl)c3)(C(F)(F)F)C2)ccc1-n1cnnn1 (centres unmarked) [Compound 153]	≥ 98				
FC(F)(F)c1cccc(C2(C(F)(F)F)CC(c3ccc(-n4cnnn4)cc3)=NO2)c1 (centres unmarked) [Compound 157]	≥ 98				
N#Cc1cc(C2=NOC(c3cccc(C(F)(F)F)c3)(C(F)(F)F)C2)ccc1-n1cnnn1 (centres unmarked) [Compound 160]	≥ 98				
O=[N+]([O-])c1cc(C2=NOC(c3cccc(C(F)(F)F)c3)(C(F)(F)F)C2)ccc1-n1cnnn1 (centres unmarked) [Compound 161]	≥ 98				
N#Cc1cc(C2=NOC(c3cc(C(F)(F)F)cc(C(F)(F)F)c3)(C(F)(F)F)C2)ccc1-n1cnnn1 (centres unmarked) [Compound 165]	≥ 98				
N#Cc1cc(C2=NOC(c3cc(Cl)cc(Cl)c3)(C(F)(F)F)C2)ccc1-n1cc(N)cn1 (centres unmarked) [Compound 181]	≥ 98				
